Results: PubChem BioAssay AID588590 (National Center for Advancing Translational Sciences (NCATS), 2011)
Screen size: about 390,000 compounds; about 4,000 (1%) were called active. The shares of active, inactive and inconclusive entries below differ from those in the screen. Calls follow the shape of the dose curve; as a rule, active = well fitted inhibition curve with a large enough effect; inconclusive = small, poorly fitted or top-dose-only effect, or another doubt; inactive = no such curve, though single readings can be large or run the other way. A potency beside an inconclusive call is a rough fit, not a confirmed value.
Potency is read from the fitted curve at half-maximal effect.

Protein sequences, listed by entry. Tags and fused reporters are not part of them. Lines headed by an entry give the natural chain unless they say otherwise; changes in a name come on top.
UniProt Q9UNA4: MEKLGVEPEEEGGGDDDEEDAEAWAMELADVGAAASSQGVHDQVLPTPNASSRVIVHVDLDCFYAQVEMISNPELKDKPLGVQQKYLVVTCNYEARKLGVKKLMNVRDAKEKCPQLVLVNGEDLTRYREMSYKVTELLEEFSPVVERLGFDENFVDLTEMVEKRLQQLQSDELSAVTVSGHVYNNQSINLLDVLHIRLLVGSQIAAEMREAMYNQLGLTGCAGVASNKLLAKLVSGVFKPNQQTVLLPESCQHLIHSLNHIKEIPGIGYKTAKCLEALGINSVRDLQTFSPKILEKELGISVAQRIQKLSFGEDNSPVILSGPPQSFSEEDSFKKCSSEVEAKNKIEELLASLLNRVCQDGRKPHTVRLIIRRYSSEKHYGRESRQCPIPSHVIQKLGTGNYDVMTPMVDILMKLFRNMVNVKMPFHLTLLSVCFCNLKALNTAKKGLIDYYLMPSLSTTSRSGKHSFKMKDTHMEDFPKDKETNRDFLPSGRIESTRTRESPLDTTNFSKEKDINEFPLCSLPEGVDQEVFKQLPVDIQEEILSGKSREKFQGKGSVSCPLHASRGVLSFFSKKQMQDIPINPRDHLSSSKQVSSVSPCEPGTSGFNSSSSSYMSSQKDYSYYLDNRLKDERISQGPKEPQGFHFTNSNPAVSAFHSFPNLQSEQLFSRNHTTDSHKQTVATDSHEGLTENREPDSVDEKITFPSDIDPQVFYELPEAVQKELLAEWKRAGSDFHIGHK

Each molecule was assayed against DNA polymerase iota (Homo sapiens) (UniProt Q9UNA4) (assay: qHTS for Inhibitors of Polymerase Iota). Details: Pol iota fluorescent replication assay, 10 min; series mostly up to 115 µM; activity, negative = inhibition: at the top concentration.
Procedure, shortened: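 Pol iota at 10 nM preincubated 15 min with compounds at room temperature; reaction started with fluorescent substrate, 50 nM final. Fluorescence read kinetically at 0 and 10 min; buffer-only wells as negative control.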
`O=C(N/N=C/c1c(F)c(F)c(F)c(F)c1F)c1ccc(Cn2cc(Br)cn2)o1` was tested, and the Potency was inconclusive: 31.6 µM [inhibitor, partial curve].
For `O=C(Cc1ccccc1)NN1C(=O)/C(=C/c2ccc(C(=O)O)cc2)SC1=S`, the Potency was inconclusive: 15.8 µM [inhibitor, full curve, poor fit].
For `Cc1cccc(NC(=O)C(=O)NCC(c2cccnc2)N2CCN(Cc3ccccc3)CC2)c1` (stereo not drawn), the “activity, negative = inhibition” value was inactive: 15%.
`CCCC(=O)Nc1ccc2nc(SCCOc3ccccc3)sc2c1` was tested, and the “activity, negative = inhibition” value was inactive: 10.9%.
With `O=C(CC1OC(=O)c2ccccc21)Nc1cc(Cl)ccc1N1CCOCC1` (stereo not drawn) the Potency was inconclusive: 17.8 µM [inhibitor, partial curve, poor fit].
With `CCOC(=O)c1[nH]c2c(c1C)C(=O)CC(c1ccco1)C2` (stereo not drawn) the Potency was inconclusive: 28.2 µM [inhibitor, full curve, poor fit].
`N#CC(C(=O)NC1CCCCC1)=C1CCCCCC1` was tested, and the Potency was inconclusive: 89.1 µM [inhibitor, single point].
For `COc1ccc2c3n(nc2c1)CCN=C3c1ccc(Cl)cc1`, the “activity, negative = inhibition” value was inactive: -3.91%.
In the case of `O=C(CN1C(=O)/C(=C\c2cccc(Br)c2)Oc2ccccc21)NCC1CCCO1` (stereo not drawn), the Potency is reported as inconclusive: 50.1 µM [inhibitor, partial curve].
`CCCC1CC(C)(c2csc(Nc3ccc(OCC)cc3)n2)OC1=O` (stereo not drawn) was tested, and the Potency was inconclusive: 25.1 µM [inhibitor, full curve].
`C/C=C/C=C/C(=O)N1CC2(CC(c3cccc(NC(=O)/C=C/C)c3)=NO2)C[C@@H]1C(N)=O` (stereo partly drawn) was tested, and the Potency was active: 39.8 µM.
`Cc1nc(-c2ccc(NS(=O)(=O)c3ccccc3)cc2)cs1` was tested, and the Potency was inconclusive: 10 µM [inhibitor, partial curve, poor fit].
In the case of `C/C=C1\COC(C(=O)NCCN2CCOCC2)(C(F)(F)F)C=C1C=C(C)C` (stereo not drawn), the “activity, negative = inhibition” value is reported as inactive: 11.1%.
In the case of `Cc1ccc2nc3sc(C(=O)Nc4ccc(F)cc4)cc3cc2c1`, the Potency is reported as inconclusive: 89.1 µM [inhibitor, partial curve].
`CCC1=NN2C(=N)/C(=C/c3ccc(OS(=O)(=O)c4ccc(C)cc4)c(OC)c3)C(=O)N=C2S1` was tested, and the Potency was inconclusive: 39.8 µM [inhibitor, single point].
`Cc1cccc(CC2S/C(=N/N=C/c3ccco3)N(c3ccccc3)C2=O)c1` (stereo not drawn) was tested, and the “activity, negative = inhibition” value was inactive: -3.97%.
For `CCCNC(=O)c1ccccc1NC(=O)c1ccc2c(=O)n3c(nc2c1)CCC3`, the Potency was inconclusive: 89.1 µM [inhibitor, single point].
For `CCCCN(CC)Cc1ccc(CNC(=O)Nc2ccc(Cl)cc2)o1`, the Potency was inconclusive: 79.4 µM [inhibitor, partial curve, poor fit].
